{
  "source": "paper PMC5024086",
  "about": "“Fine-tuning of amino sugar homeostasis by EIIA^Ntr in Salmonella Typhimurium” (Scientific Reports, 2016)",
  "molecular_target": "T1, GlmS tagged with His6 at its N-terminus (His6-GlmS), co-produced with EIIA^Ntr from pETDuet-glmS·ptsN (Salmonella Typhimurium) (UniProt Q8ZKX1)",
  "T1 sequence": "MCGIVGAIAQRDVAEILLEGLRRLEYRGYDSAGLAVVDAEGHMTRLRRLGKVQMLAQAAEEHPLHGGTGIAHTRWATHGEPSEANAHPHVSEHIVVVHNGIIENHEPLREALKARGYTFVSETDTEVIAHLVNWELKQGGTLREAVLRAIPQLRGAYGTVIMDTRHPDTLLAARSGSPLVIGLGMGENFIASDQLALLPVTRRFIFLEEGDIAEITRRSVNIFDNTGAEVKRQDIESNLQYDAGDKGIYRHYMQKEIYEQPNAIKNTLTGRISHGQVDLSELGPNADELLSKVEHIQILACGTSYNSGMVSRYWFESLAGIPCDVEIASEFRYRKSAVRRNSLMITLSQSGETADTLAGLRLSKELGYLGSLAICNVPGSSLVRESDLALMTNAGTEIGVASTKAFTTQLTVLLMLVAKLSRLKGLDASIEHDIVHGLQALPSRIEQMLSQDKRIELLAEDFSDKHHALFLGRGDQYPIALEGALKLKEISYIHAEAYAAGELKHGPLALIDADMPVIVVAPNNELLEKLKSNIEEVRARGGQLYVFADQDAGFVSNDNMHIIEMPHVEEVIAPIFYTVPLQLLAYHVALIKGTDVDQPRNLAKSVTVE",
  "test": "pull-down; His6-GlmS and EIIA^Ntr co-produced in E. coli BL21 (DE3) from pETDuet-glmS·ptsN; extract on Ni-NTA resin, 20 mM Tris-HCl pH 8.0, 300 mM NaCl, eluted with 50–200 mM imidazole; SDS-PAGE, Coomassie",
  "note": "Results are given in words; binding and its absence hold for the method and conditions named. Binding seen in cells or lysates may run through a third protein. Binding can be weak; no strength is given. Where a sequence is shown, tags or fusion partners need not be part of it.",
  "data": [
    {"substance": "EIIA^Ntr co-produced with His6-GlmS from pETDuet-glmS·ptsN (Salmonella Typhimurium)", "values": [
      {"measurement": "binding", "result": "binds"}
    ]}
  ]
}
